Experimental findings from PMC4859692 are described below.

Protein sequences, listed by entry. Tags and fused reporters are not part of them. Lines headed by an entry give the natural chain unless they say otherwise; changes in a name come on top.
UniProt Q54IX5: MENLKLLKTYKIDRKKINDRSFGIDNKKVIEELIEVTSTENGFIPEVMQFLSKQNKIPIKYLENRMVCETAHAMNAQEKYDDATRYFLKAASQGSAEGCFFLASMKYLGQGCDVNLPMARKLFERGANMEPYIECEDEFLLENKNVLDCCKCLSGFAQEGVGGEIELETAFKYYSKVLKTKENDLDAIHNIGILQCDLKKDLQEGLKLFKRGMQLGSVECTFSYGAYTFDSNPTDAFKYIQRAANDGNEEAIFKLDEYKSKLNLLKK

These are yes or no findings as the source states them, for the method shown. In cells and extracts the contact can be indirect. Binding can be weak; no strength is given. Where a sequence is shown, tags or fusion partners need not be part of it.

Test [1] has as its target T1, Ino1-RFP (Dictyostelium inositol-3-phosphate synthase with a C-terminal RFP tag) (Dictyostelium discoideum) (UniProt Q54N49).
T1 sequence: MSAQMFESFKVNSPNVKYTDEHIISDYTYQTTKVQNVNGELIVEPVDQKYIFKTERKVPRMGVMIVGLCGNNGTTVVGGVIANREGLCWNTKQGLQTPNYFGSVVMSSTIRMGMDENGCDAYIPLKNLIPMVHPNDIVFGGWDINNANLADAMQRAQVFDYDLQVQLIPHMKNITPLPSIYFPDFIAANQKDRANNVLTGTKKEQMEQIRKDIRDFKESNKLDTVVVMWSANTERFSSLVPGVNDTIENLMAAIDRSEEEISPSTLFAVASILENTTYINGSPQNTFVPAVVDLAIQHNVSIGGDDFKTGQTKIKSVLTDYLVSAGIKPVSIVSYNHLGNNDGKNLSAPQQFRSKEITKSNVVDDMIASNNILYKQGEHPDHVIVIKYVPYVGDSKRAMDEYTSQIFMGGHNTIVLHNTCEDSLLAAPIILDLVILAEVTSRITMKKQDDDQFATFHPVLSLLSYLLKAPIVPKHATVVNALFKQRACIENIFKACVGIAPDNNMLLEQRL
The test is described as follows: co-IP; ino1- cells coexpressing Ino1-RFP and a FLAG-tagged protein; lysate on anti-RFP-coated (RFP-Trap) beads, 1 h at 4°C; Western blot with anti-RFP and anti-FLAG M2. (In general: In western blotting, separated proteins are transferred to a membrane and probed.)

For test [2], the target named is GFP-tagged Q54IX5 (Dictyostelium discoideum) (UniProt Q54IX5). The test can be described thus: co-IP; reverse: ino1- cells coexpressing Ino1-RFP (or mRFPmars only as control) and GFP-Q54IX5; lysate on anti-GFP-coated (GFP-Trap) beads, 1 h at 4°C; Western blot with anti-GFP and anti-RFP.

As for “FLAG-tagged Q54IX5 (from UniProt Q54IX5)”, in test [1], the binding result is on record as “binds”.

B1: Ino1-RFP (Dictyostelium inositol-3-phosphate synthase with a C-terminal RFP tag) (enzyme, UniProt Q54N49 1-511)
chain: MSAQMFESFKVNSPNVKYTDEHIISDYTYQTTKVQNVNGELIVEPVDQKYIFKTERKVPRMGVMIVGLCGNNGTTVVGGVIANREGLCWNTKQGLQTPNYFGSVVMSSTIRMGMDENGCDAYIPLKNLIPMVHPNDIVFGGWDINNANLADAMQRAQVFDYDLQVQLIPHMKNITPLPSIYFPDFIAANQKDRANNVLTGTKKEQMEQIRKDIRDFKESNKLDTVVVMWSANTERFSSLVPGVNDTIENLMAAIDRSEEEISPSTLFAVASILENTTYINGSPQNTFVPAVVDLAIQHNVSIGGDDFKTGQTKIKSVLTDYLVSAGIKPVSIVSYNHLGNNDGKNLSAPQQFRSKEITKSNVVDDMIASNNILYKQGEHPDHVIVIKYVPYVGDSKRAMDEYTSQIFMGGHNTIVLHNTCEDSLLAAPIILDLVILAEVTSRITMKKQDDDQFATFHPVLSLLSYLLKAPIVPKHATVVNALFKQRACIENIFKACVGIAPDNNMLLEQRL
As for B1, in test [2], the binding entry is recorded as “binds”.
